No constants are given. Whether binding was seen depends on the method and setting.
Biological target: Apurinic/apyrimidinic endonuclease 1 (APE1) (UniProt P27695)
Assay: atomic force microscopy

Chains of the proteins cited; added tags and fusions are not shown.
UniProt P27695: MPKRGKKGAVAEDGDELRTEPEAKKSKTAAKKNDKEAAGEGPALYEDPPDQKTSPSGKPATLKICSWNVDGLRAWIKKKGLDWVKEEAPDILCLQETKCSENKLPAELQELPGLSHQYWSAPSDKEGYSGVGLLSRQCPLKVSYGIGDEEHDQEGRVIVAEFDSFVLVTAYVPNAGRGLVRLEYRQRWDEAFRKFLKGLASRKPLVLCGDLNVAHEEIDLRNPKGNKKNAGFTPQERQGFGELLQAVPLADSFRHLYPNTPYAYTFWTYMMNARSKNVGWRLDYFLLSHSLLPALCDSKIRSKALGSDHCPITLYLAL

## Apurinic/apyrimidinic endonuclease 1 (APE1) (from UniProt P27695 1-318) (enzyme; other documents disagree on this pair)
  binding: no binding (tested: 1 nM)
